# Library screening results

The values are deposited in ChEMBL (CHEMBL3988442, “University of Dundee, Small-Polar-MMV Screening Library” (2021)).

Values are the deposited “Percent Effect”, in %.
The controls that fix the scale are not given in the record; negative values are as filed.
The compounds are a random part of those screened.
Two or more numbers in one place are separate tests of the same structure; such repeats can differ widely.

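Viability assay of Plasmodium falciparum sporozoites; the read-out is not stated. The concentration is filed as 10 mM, unlikely as a test dose, so the dose is not known. Higher reads as lower viability (inferred: compounds with an IC50 in retests scored well above the rest). Strong results were mostly tested again. About 34,000 compounds were tested under these conditions; 0.84% (about 280) showed 50% or more at least once.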

compound,Percent Effect
O=C(NCCNc1ncccn1)C1CC(=O)N(Cc2ccccn2)C1 (stereo unspecified),3.348%
CCC(=O)N1CCC2(CC1)CNC(=O)c1cc(C)ccc1O2,7.401%
CNC(=O)CCc1cc(C)nc(C2CCCCN2)n1 (stereo unspecified),-0.8661%
CCc1[nH]c2ccc(CNC(=O)Cc3c(C)nc(N)nc3C)cc2c1C,9.123%
CSc1ccc(CNC(c2ccccc2F)c2nccn2C)cc1.Cl (stereo unspecified),-2.234%
CCOC(=O)NCCNC(=O)c1cc2ccccc2nc1N1CCCC1,-0.6519%
Cc1ccc(C(=O)N(C)Cc2cc(C)on2)cn1,14%
Cl.Clc1ccccc1CN1CCc2nc(C3CCNCC3)ncc2C1,13.19%
Cc1nn(C)c2nc(N(C)CC3CCN(CC(C)C)C3)sc12 (stereo unspecified),-4.272%
O=C(c1ccc[nH]1)N1CCCn2cnc(COCC3CC3)c2C1,-6.163%
Cc1ncc(-c2ccnc(NCCc3ccc(F)cc3)n2)c(=O)[nH]1,-0.5927%
CC(C)(C)c1nc(C(C)(C)NC(=O)C2CC(=O)N(CC3CC3)C2)no1 (stereo unspecified),6.882%
CN(C)S(=O)(=O)N1CCN(c2nccc(C(F)(F)F)n2)CC1,-12.63%
COc1c(CNCc2ccc(C(=O)NC3CC3)cc2)c(C)nn1C.Cl,-11.69%
O=C(Cc1ccon1)N1CCN(c2ccc(F)cc2Cl)CC1,-15.25%
CN(C)CCCNC(=O)c1cc(Br)c2c(c1)OCCO2,1.931%
c1csc(CNc2ccccc2Cn2cncn2)c1,-5.006%
Cn1cnc2c1C(COCc1ccccc1)N(Cc1ccncc1)CC2.O=C(O)C(F)(F)F.O=C(O)C(F)(F)F.O=C(O)C(F)(F)F (stereo unspecified),0.3247%
CC(C)c1nccn1CCC(=O)N1CCCCC1c1ccn[nH]1 (stereo unspecified),4.208%
CC(C)Cc1noc(CN2CCN(C(=O)c3cccc(F)c3)CC2)n1,-10.2%
CNC(=O)c1cn[nH]c1C1CCN(Cc2cccc(C)c2OC)C1 (stereo unspecified),6.949%
COc1c(CNC2CCOc3ccccc32)c(C)nn1C (stereo unspecified),-27.77% and -26.02%
Cc1nn(CC(=O)N2CCCN(c3cccnn3)CC2)c(C)c1Cl,-2.236%
COCc1cccc(NC(C)C(=O)N(C)Cc2cccc(F)c2)c1 (stereo unspecified),-1.153%
O=C(O)CC(O)(CC(=O)O)C(=O)O.[H][C@]12CC[C@](O)(c3ccc(C)cn3)[C@@]1([H])CN(Cc1ccc(OC)cc1F)C2,-12.44%
O=C(O)C(F)(F)F.O=C(O)C(F)(F)F.[H][C@@]12CCCO[C@]1([H])[C@H](N(C)Cc1cccnc1)CN2C(=O)NC1CC1,11.3%
O=C1CCNc2cc3c(cc2CN1Cc1ccco1)OCO3,-31.06%
c1ccc(OCCN2CCCC(c3noc(C4CC4)n3)C2)cc1 (stereo unspecified),5.365%
O=C1CN(C(=O)C2CCOCC2)CCN1Cc1ccc(Cl)cc1,2.309%
Cc1nc2cc(O)nn2c(C)c1CCC(=O)NCc1cc(Br)cs1,3.643%
CC(C)c1nn(C)cc1CNC1CCOc2ccccc21.Cl (stereo unspecified),16.87%
CC(C)c1cc(C(=O)N(C)Cc2cccc3ncccc23)n(C)n1,-5.889%
Cc1ccccc1CN(C)CC(O)COCc1ccccc1Cl (stereo unspecified),4.087%
Cc1cn2c(n1)CCC(NC(=O)c1cnc(C)nc1C(C)C)C2 (stereo unspecified),-8.555%
Cc1cnc(C)c(N2CCN(CC3CCCO3)CC2)n1 (stereo unspecified),-7.784%
CSCCC(Nc1nc(C)cc(C)n1)C(=O)NCC1CCOCC1 (stereo unspecified),-1.74%
CCN1CCC2(CC1)CN(C(=O)c1cccnc1)c1ccc(Cl)cc12.O=C(O)C(F)(F)F.O=C(O)C(F)(F)F,10.3%
Cc1nc(C2CCCN2CCCS(=O)(=O)N(C)C)no1 (stereo unspecified),7.585%
Cc1cc(NC(=O)CN2CCn3c(C)nnc3C2)no1,-14.72%
Cc1cncc(C2CCCN(C(=O)c3cnco3)C2)n1 (stereo unspecified),8.033%
O=C(COc1coc(CN2CCCCCC2)cc1=O)c1ccccc1,13.64%
COCCN(CCOC)Cc1nc2c(cnn2C)c(=O)[nH]1,2.431%
Cc1ccc2c(n1)N(CC1CC1)CCN(Cc1cnn(C)c1)C2,2.483%
CC(=O)N1CCC(n2nccc2-c2cnc(N)nc2)CC1,-13.97%
N#Cc1ccc(C2CC(=O)Nc3c2cnn3C2CCCC2)cc1 (stereo unspecified),-2.361%
O=C(Nc1cc(C(F)(F)F)c[nH]c1=O)C1CCNCC1,-6.502%
NC(=O)C1(c2cnccn2)CCCN1Cc1ccc(F)c(F)c1 (stereo unspecified),-10.34%
Cn1cccc1C(=O)N1CCC2(CC1)CN(S(C)(=O)=O)c1ccccc12,0.4378%
O=C(O)C(F)(F)F.O=C(O)C(F)(F)F.[H][C@@]12CN(Cc3ccsc3)C[C@]1([H])OCCN2CC1CCCO1 (stereo partly specified),-11.53%
CCc1cc(N(C)CCC(O)c2ccccc2)n2nccc2n1 (stereo unspecified),3.231%
Cn1ncc2c1CCCC2NCc1cnc(-c2ccccc2)nc1 (stereo unspecified),18.56%
COCCN(CC(N)=O)CC1CCCN(C2Cc3ccccc3C2)C1 (stereo unspecified),9.358%
CNC(=O)c1cccc(CNC(=O)C2CC(=O)N(CCN(C)C)C2)c1 (stereo unspecified),-1.288%
Cc1nn(C)c(C)c1CNCc1ccnc(N2CCOCC2)c1,-18.85%
Cc1ccc(OCCNC(=O)C(C)n2cncn2)cc1 (stereo unspecified),4.688%
CNc1cc(N2CCCC2CNCc2cnc(C)s2)ncn1 (stereo unspecified),-1.502%
O=C(c1ccco1)N1CCc2onc(Cn3cccn3)c2C1,-1.217%
Cc1cc(N(C)C)nc(C2COCCN2Cc2nccn2C)n1 (stereo unspecified),3.995%
O=C(O)C(F)(F)F.[H][C@@]12CN(C(=O)C3CCOCC3)C[C@]1([H])OCCN2Cc1c(C)noc1C,-5.817%
CCOc1cc([C@H]2N[C@@H](c3nc(C)cs3)Cc3ccsc32)ccc1OC,5.89%
CC(C)(C)c1cc(CNC(=O)c2cc(COc3ccccc3)[nH]n2)[nH]n1,2.163%
CC(C)NC(=O)C1CN(C(N)=O)Cc2ccnn2C1 (stereo unspecified),3.571%
Cc1csc(N2CCN(CC(=O)Nc3cccnc3)CC2C)n1 (stereo unspecified),3.117%
Cc1ccc(C(=O)NCC2(O)CCOCC2)cc1Br,-8.824%
CCc1noc(CN2CCC(C(=O)Nc3cnn(CC)c3)CC2)n1,13.65%
O=C(O)C(F)(F)F.O=C(O)C(F)(F)F.c1csc(CN2CCCn3cnc(CN4CCCC4)c3C2)c1,13.97%
O=C(O)C(F)(F)F.O=C(O)C(F)(F)F.[H][C@@]12COC[C@@H](CC(=O)NCc3cccnc3)[C@]1([H])CN(C1CCCC1)C2,-5.051%
Cc1ccc(N2CCc3ncnc(C4CC4)c3CC2)nn1,1.051%
CC(=O)N(Cc1ncc(C(C)C)o1)C1CCN(CCn2cncn2)C1 (stereo unspecified),-2.055%
Cc1cccc(-c2nnn3c2COC(CNS(=O)(=O)C2CC2)C3)c1 (stereo unspecified),6.218%
O=C(NCCNc1ncccn1)C1CC(=O)N(C2CCCC2)C1 (stereo unspecified),3.799%
Cc1cc(C[C@@H]2CCC[C@H]2NCc2cccc(F)c2F)on1.O=C(O)CC(O)(CC(=O)O)C(=O)O,0%
CC(C(=O)NCc1ccc(-n2cncn2)nc1)n1ccnc1 (stereo unspecified),-5.78%
CN(Cc1ccccc1)CC1(O)CCCN(CC(C)(C)C)C1=O (stereo unspecified),1.12%
CCN(C)CC(=O)N1CCCC(c2nnc(CN3CCOCC3)n2C)C1 (stereo unspecified),3.418%
[H][C@@]12CS(=O)(=O)C[C@]1([H])N(C(=O)c1cccs1)CCN2Cc1[nH]cnc1C,10.91%
CN(Cc1ccsc1)C(=O)Nc1ccc(S(C)(=O)=O)cc1,-3.845%
O=C(NCC1CC1)C1CCC2(CCN(C(=O)c3cccs3)CC2)O1 (stereo unspecified),-5.054%
CC(C(=O)NC1CCCCC1)N1CCc2[nH]nc(C(F)(F)F)c2C1 (stereo unspecified),4.94%
Cc1nc2cc(OCc3nc(C(=O)NC(CO)CO)co3)ccc2s1,-10.09%
CCc1cccc(-n2nnc(C(=O)O)c2-c2ccncc2)c1,-11.9%
COCCN1CCCC2(CCN(c3cc(C)c(C#N)c(C)n3)C2)C1=O (stereo unspecified),3.76%
CC(NC1(CNC(=O)Cn2cccn2)CCOCC1)c1ccccc1 (stereo unspecified),-13.61%
[H][C@@]12CCCO[C@]1([H])[C@H](NC(=O)CC1CC1)CN(C(=O)c1ccoc1)C2,-885.5%
CNS(=O)(=O)c1csc(C(=O)N(C)Cc2sccc2C)c1,-7.658%
Cc1ncncc1-c1ccnc(N)n1,-1.439%
COc1cccc(CNC(=O)C(c2cccc(F)c2)N2CCOCC2)c1 (stereo unspecified),-3.044%
CCc1nccn1C1CCCN(C(=O)CCc2nccs2)C1 (stereo unspecified),-4.64%
CC(=O)Nc1nc(C(=O)NCc2ccc(OC(C)C)nc2)cs1,-0.6057%
CN(Cc1ccsc1)C(=O)CN1CCCC1Cn1cccn1 (stereo unspecified),-10.64%
O=C(NCc1cccc(N2CCCCC2=O)c1)[C@@H](O)c1ccccc1,-1.115%
COc1ccc(NC(=O)CCC2CCCN(Cc3ncon3)C2)cc1Cl (stereo unspecified),15.45%
CC(C)C(=O)N1CCCC(c2cncc(Oc3cccnc3)n2)C1 (stereo unspecified),-4.997%

Repeated from the top, 7 entries:

| compound | Percent Effect |
|---|---|
| `O=C(NCCNc1ncccn1)C1CC(=O)N(Cc2ccccn2)C1` (stereo unspecified) | 3.348% |
| `CCC(=O)N1CCC2(CC1)CNC(=O)c1cc(C)ccc1O2` | 7.401% |
| `CNC(=O)CCc1cc(C)nc(C2CCCCN2)n1` (stereo unspecified) | -0.8661% |
| `CCc1[nH]c2ccc(CNC(=O)Cc3c(C)nc(N)nc3C)cc2c1C` | 9.123% |
| `CSc1ccc(CNC(c2ccccc2F)c2nccn2C)cc1.Cl` (stereo unspecified) | -2.234% |
| `CCOC(=O)NCCNC(=O)c1cc2ccccc2nc1N1CCCC1` | -0.6519% |
| `Cc1ccc(C(=O)N(C)Cc2cc(C)on2)cn1` | 14% |